Measured values from the supplement of paper PMC6078165.

Test system: MDAMB468
Test: relative JC-1 red fluorescence (viability) vs pre-drug, coculture with fibroblast (fraction); higher = more viable cancer cells
Experimental: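 JC-1 labelled TNBC cells cocultured 1:1 (1,500 cells each) with CellTrace Violet stained primary or stromal fibroblasts in 384-well plates in FluoroBrite medium, treated with one of 42 anticancer drugs at 0.1, 1, 10 or 100 uM. JC-1 red fluorescence (mitochondrial integrity in cancer cells only) was read by plate reader every 8 h for 72 h. Values are normalised to each well's pre-drug value. The stock of one drug was tenfold lower, so its dose labels may be too high.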

CCCCCOC(=O)Nc1nc(=O)n([C@@H]2O[C@H](C)[C@@H](O)[C@H]2O)cc1F [Capecitabine]
relative JC-1 red fluorescence
Conditions | 8 h | 16 h | 24 h | 32 h | 40 h | 48 h | 56 h | 64 h | 72 h
10 µM, coculture fibroblast: C12385 | 0.9006 | 0.801 | 0.764 | 0.705 | 0.646 | 0.627 | 0.582 | 0.541 | 0.517
10 µM, coculture fibroblast: H6013 | 0.887 | 0.8604 | 0.8174 | 0.8043 | 0.7797 | 0.794 | 0.7727 | 0.7596 | 0.7066
10 µM, coculture fibroblast: H6019 | 0.8393 | 0.811 | 0.784 | 0.74 | 0.693 | 0.674 | 0.637 | 0.593 | 0.568
10 µM, coculture fibroblast: H6076 | 0.9342 | 0.7602 | 0.924 | 0.894 | 0.822 | 0.802 | 0.758 | 0.739 | 0.751
10 µM, coculture fibroblast: H6231 | 0.836 | 0.819 | 0.916 | 0.863 | 0.822 | 0.783 | 0.717 | 0.677 | 0.659
10 µM, coculture fibroblast: HADF | 0.9069 | 0.841 | 0.778 | 0.768 | 0.705 | 0.691 | 0.644 | 0.625 | 0.581
10 µM, coculture fibroblast: HCFa | 0.875 | 0.828 | 0.777 | 0.747 | 0.686 | 0.687 | 0.642 | 0.605 | 0.571
10 µM, coculture fibroblast: HCPF | 0.879 | 0.9919 | 0.89599 | 0.838 | 0.775 | 0.739 | 0.672 | 0.65534 | 0.6267
10 µM, coculture fibroblast: HHSteC | 0.908 | 0.859 | 0.815 | 0.778 | 0.737 | 0.733 | 0.672 | 0.655 | 0.608
10 µM, coculture fibroblast: HMF | 0.832 | 0.882 | 0.937 | 0.903 | 0.853 | 0.827 | 0.77 | 0.745 | 0.721
10 µM, coculture fibroblast: HPFa | 0.9184 | 0.885 | 0.848 | 0.799 | 0.754 | 0.751 | 0.681 | 0.65 | 0.582
10 µM, coculture fibroblast: HUF | 0.919 | 0.818 | 0.79 | 0.741 | 0.709 | 0.6913 | 0.654 | 0.65 | 0.64
10 µM, coculture fibroblast: Hs5 | 0.859 | 0.892 | 0.931 | 0.897 | 0.8267 | 0.795 | 0.753 | 0.7088 | 0.724
10 µM, coculture fibroblast: Hs27A | 0.873 | 0.81322 | 0.761 | 0.7444 | 0.689 | 0.681 | 0.6401 | 0.6093 | 0.56
10 µM, coculture fibroblast: Hs343T | 0.859 | 0.8331 | 0.929 | 0.8657 | 0.786 | 0.748 | 0.684 | 0.66 | 0.615
10 µM, coculture fibroblast: WS1 | 0.836 | 0.763 | 0.707 | 0.638 | 0.585 | 0.544 | 0.513 | 0.476 | 0.457
100 µM, coculture fibroblast: C12385 | 0.91459 | 0.824 | 0.805 | 0.754 | 0.709 | 0.693 | 0.648 | 0.621 | 0.608
100 µM, coculture fibroblast: H6013 | 0.907 | 0.8802 | 0.8519 | 0.8574 | 0.857 | 0.8687 | 0.8526 | 0.8483 | 0.8016
100 µM, coculture fibroblast: H6019 | 0.816 | 0.788 | 0.751 | 0.699 | 0.668 | 0.654 | 0.617 | 0.589 | 0.566
100 µM, coculture fibroblast: H6076 | 0.94 | 0.963 | 0.91 | 0.899 | 0.833 | 0.818 | 0.786 | 0.774 | 0.814
100 µM, coculture fibroblast: H6231 | 0.872 | 0.913 | 0.854 | 0.8729 | 0.8076 | 0.786 | 0.735 | 0.709 | 0.71
100 µM, coculture fibroblast: HADF | 0.93387 | 0.868 | 0.82 | 0.82 | 0.772 | 0.755 | 0.709 | 0.691 | 0.65
100 µM, coculture fibroblast: HCFa | 0.883 | 0.837 | 0.785 | 0.771 | 0.714 | 0.711 | 0.672 | 0.642 | 0.6026
100 µM, coculture fibroblast: HCPF | 0.864 | 0.958 | 0.864 | 0.851 | 0.7982 | 0.762 | 0.724 | 0.708 | 0.682
100 µM, coculture fibroblast: HHSteC | 0.927 | 0.8679 | 0.848 | 0.824 | 0.809 | 0.816 | 0.763 | 0.758 | 0.708
100 µM, coculture fibroblast: HMF | 0.839 | 0.937 | 0.859 | 0.828 | 0.78 | 0.763 | 0.708 | 0.683 | 0.648
100 µM, coculture fibroblast: HPFa | 0.982 | 0.917 | 0.901 | 0.853 | 0.84488 | 0.846 | 0.786 | 0.766 | 0.687
100 µM, coculture fibroblast: HUF | 0.967 | 0.867 | 0.8392 | 0.781 | 0.744 | 0.7189 | 0.67828 | 0.663 | 0.647
100 µM, coculture fibroblast: Hs5 | 0.872 | 0.947 | 0.913 | 0.895 | 0.833 | 0.8 | 0.767 | 0.741 | 0.766
100 µM, coculture fibroblast: Hs27A | 0.8854 | 0.839 | 0.776 | 0.77 | 0.702 | 0.688 | 0.645 | 0.614 | 0.572
100 µM, coculture fibroblast: Hs343T | 0.914 | 0.949 | 0.877 | 0.849 | 0.785 | 0.771 | 0.727 | 0.705 | 0.69
100 µM, coculture fibroblast: WS1 | 0.876 | 0.803 | 0.75 | 0.678 | 0.632 | 0.591 | 0.554 | 0.516 | 0.495

Values are relative to the signal before dosing, not to a vehicle control; the signal also falls without drug.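 Labels refer to human fibroblasts, largely primary: uterine (C12385, HUF), lung (H6013), bone (Hs27A), adrenal (HADF), skin (WS1), plus mammary HMF and breast cancer-associated Hs343T. Cancer lines are basal-like or mesenchymal-like triple-negative breast cancer. The paper counts as hits responses shifting over 3x the replicate standard deviation. The tissue of the other fibroblasts is not given here.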
